# PubChem BioAssay AID1508597, Cure First | 2020
# Assay: 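Survival screen with siRNA in ovarian cancer cells derived from patients, with or without rucaparib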 (primary screen)
# Cells: human ovarian carcinoma lines grown from tumours: OCI-P5x (papillary serous) and OCI-C5x (clear cell)
# Knock-down reagent: siRNA pool against human genes, 1.25 pmol siRNA per well
# Timing: 72 h or 96 h, depending on the cell culture
# Challenge: rucaparib 20 µM (about IC30) or vehicle, present until read-out
# Rucaparib or vehicle: Rucaparib
# Cell line: OCI-P5x (serous)
# Measurement: 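ATP luminescence measured at 72 or 96 h according to the culture, then normalised and expressed as percent viability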
# Reading the numbers: viability, normalised: higher = more viable cells remaining
# Active means: 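Active when normalised viability falls below 80 percent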
# Calls: active = viability under 80%; inactive = viability 80% or more
# This is a random part of the about 2,100 reagents, in one setting of the screen. 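Calls flag viability under 80% in either arm, not effects specific to rucaparib; the reference for percent is not stated.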 A reagent listed more than once was tested more than once; the source does not tell the runs apart. Reagent sequences are not shown. Not stated in the record: the 100% reference.
gene symbol,technical replicate,"viability, normalised (%)",Outcome
TCF20 (GeneID 6942),1,41.1,active
TCF20 (GeneID 6942),2,52.4,active
TCF20 (GeneID 6942),3,33.9,active
ETNK2 (GeneID 55224),1,69.7,active
ETNK2 (GeneID 55224),2,89.3,inactive
ETNK2 (GeneID 55224),3,86.7,inactive
OXSM (GeneID 54995),1,79.1,active
OXSM (GeneID 54995),2,59,active
OXSM (GeneID 54995),3,90.2,inactive
GDPD5 (GeneID 81544),1,51.4,active
GDPD5 (GeneID 81544),2,54.4,active
GDPD5 (GeneID 81544),3,51.7,active
MACROD2 (GeneID 140733),1,54,active
MACROD2 (GeneID 140733),2,50.2,active
MACROD2 (GeneID 140733),3,55.3,active
TRIM28 (GeneID 10155),1,98,inactive
TRIM28 (GeneID 10155),1,63,active
TRIM28 (GeneID 10155),2,57,active
TRIM28 (GeneID 10155),2,105,inactive
TRIM28 (GeneID 10155),3,103,inactive
TRIM28 (GeneID 10155),3,50.3,active
RAD54L2 (GeneID 23132),1,36.9,active
RAD54L2 (GeneID 23132),2,41.5,active
RAD54L2 (GeneID 23132),3,52.2,active
LMNA (GeneID 4000),1,88.4,inactive
LMNA (GeneID 4000),2,129,inactive
LMNA (GeneID 4000),3,106,inactive
SETD6 (GeneID 79918),1,43.3,active
SETD6 (GeneID 79918),2,55.9,active
SETD6 (GeneID 79918),3,48.4,active
FAM91A1 (GeneID 157769),1,46.3,active
FAM91A1 (GeneID 157769),2,53.8,active
FAM91A1 (GeneID 157769),3,57.5,active

Continued (6 carried over from the part before).
gene symbol,technical replicate,"viability, normalised (%)",Outcome
SETD6 (GeneID 79918),1,43.3,active
SETD6 (GeneID 79918),2,55.9,active
SETD6 (GeneID 79918),3,48.4,active
FAM91A1 (GeneID 157769),1,46.3,active
FAM91A1 (GeneID 157769),2,53.8,active
FAM91A1 (GeneID 157769),3,57.5,active
RIPK3 (GeneID 11035),1,99.1,inactive
RIPK3 (GeneID 11035),2,96.7,inactive
RIPK3 (GeneID 11035),3,55.9,active
FANCI (GeneID 55215),1,57.7,active
FANCI (GeneID 55215),2,69.8,active
FANCI (GeneID 55215),3,59.2,active
KDM1B (GeneID 221656),1,77.5,active
KDM1B (GeneID 221656),2,62.3,active
KDM1B (GeneID 221656),3,66,active
TJP3 (GeneID 27134),1,86.1,inactive
TJP3 (GeneID 27134),2,82.1,inactive
TJP3 (GeneID 27134),3,91.8,inactive
SUCLA2 (GeneID 8803),1,58.3,active
SUCLA2 (GeneID 8803),2,78.1,active
SUCLA2 (GeneID 8803),3,82.8,inactive
BUB1 (GeneID 699),1,76.7,active
BUB1 (GeneID 699),1,72.1,active
BUB1 (GeneID 699),2,80.1,inactive
BUB1 (GeneID 699),2,74.7,active
BUB1 (GeneID 699),3,52.6,active
BUB1 (GeneID 699),3,90.5,inactive
ERCC8 (GeneID 1161),1,76.5,active
ERCC8 (GeneID 1161),2,96.7,inactive
ERCC8 (GeneID 1161),3,79.2,active
